Results: PubChem BioAssay AID1347075 (National Center for Advancing Translational Sciences (NCATS), 2019)
The whole screen tested about 400,000 compounds, of which about 5,500 (1.4%) were called active. The shares of active, inactive and inconclusive entries below differ from those in the screen. Calls come from the whole dose curve; as a rule, active = well fitted cell-killing curve with a large enough effect; inconclusive = small, poorly fitted or top-dose-only effect, or effect the other way; inactive = flat fitted curve, though single readings scatter. Where the call is inconclusive, the potency comes from a doubtful curve fit.

Assay: qHTS assay for MDR1-selective chemotherapeutics: Primary screen using the parental adenocarcinoma cell KB-3-1; note: nearly all actives have a fitted effect of over 60% in size
Details: KB-3-1 viability, CellTiter-Glo ATP luminescence, 72 h; activity change, negative = cytotoxic: at 46.1 µM (top of the series)
Method in brief: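 Parental KB-3-1 adenocarcinoma cells in phenol-red-free DMEM with 10% FBS were pin-treated with compounds at several concentrations, incubated 72 h at 37 °C, and viability read by CellTiter-Glo luminescence; concentration-effect curves were fitted after normalization.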
% is set by controls: 0 for no effect and ±100 for the full control effect; potency is the fitted concentration of half-maximal effect.

Row | Compound | Potency | activity change, negative = cytotoxic
1 | COc1ccc(NC(=O)C(=O)NCC2CCCN2S(=O)(=O)c2ccc(C)cc2)cc1 (configuration not stated) | active: 0.146 µM | –
2 | C=C(C)Cc1c(C)c(C#N)c2[nH]c3ccccc3n2c1=O | inconclusive: 29.1 µM [cytotoxic, partial curve, poor fit] | –
3 | CC[C@]12c3[nH]c4cc(CCC(=O)N(C)C)ccc4c3CCN1C(=O)[C@@H](CC(=O)NCc1ccc(OC)c(OC)c1)C[C@@H]2C(=O)N1CCN(C(=O)C2CC2)CC1 | inconclusive: 29.1 µM [rising, single point] | –
4 | O=C(Nc1ccc(CN2CCS(=O)(=O)CC2)cc1)c1ccc(Cl)cc1 | inconclusive: 16.4 µM [cytotoxic, single point] | –
5 | COc1ccc(NC(=O)CCOc2ccccc2C)cc1S(=O)(=O)N1CCCCC1 | inconclusive: 16.4 µM [cytotoxic, partial curve, poor fit] | –
6 | COc1ccccc1/C=N/NC(=O)CSc1cc(C)nc2ccccc12 | inconclusive: 20.6 µM [cytotoxic, single point] | –
7 | Cn1cc(-c2ccc(C(=O)NCc3cccc(Cl)c3)c3occc23)cn1 | inactive | –
8 | CC(=O)c1sc(N/N=C/c2ccc(C(C)C)cc2)nc1C | inconclusive: 1.3 µM [rising, full curve, poor fit] | –
9 | CC(=O)c1cc2c(cc1NC(=O)CSc1ncccn1)OCO2 | inactive | –
10 | COc1ccccc1/C=C1\SC(=S)N(CCC(=O)NCCc2ccc(O)cc2)C1=O | inactive | –
11 | Cc1nn(-c2ccccc2)c(N)c1N=Nc1ccc2ccccc2c1 | inconclusive: 29.1 µM [cytotoxic, single point] | –
12 | CCOc1ccc(CC(=O)N2CCN=C2SC)cc1 | – | inconclusive: -12.3%
13 | S=c1[nH]nc(-c2ccc(Cl)cc2)n1-c1ccc(Cl)cc1 | inactive | –
14 | Cc1ccccc1CN1C(=O)c2ccccc2C1c1nnnn1-c1ccc2c(c1)OCCO2 (configuration not stated) | active: 2.91 µM | –
15 | CCOc1ccc(NC(=O)NN2C(C)CCCC2C)cc1 (configuration not stated) | inconclusive: 20.6 µM [cytotoxic, single point] | –
16 | CCc1ccc(/C=C2\Oc3cc(OC(=O)N4CCOCC4)ccc3C2=O)cc1 | inconclusive: 23.1 µM [rising, single point] | –
17 | CCOc1ccc(NC(=O)C(=O)NCCc2csc3nc(-c4ccccc4F)nn23)cc1 | inactive | –
18 | O=C(CN1C(=O)COc2ccc(Cl)cc21)NC1CC1 | inactive | –
19 | O=C(N/N=C/c1cccc(F)c1)c1c(O)c2c([nH]c1=O)CCCC2 | inconclusive: 29.1 µM [cytotoxic, single point] | –
20 | Cc1cc2nc(Sc3c([N+](=O)[O-])nc(C)n3Cc3ccccc3)[nH]c2cc1C | inconclusive: 18.4 µM [cytotoxic, partial curve, poor fit] | –
21 | COc1cccc(/C=N/Nc2nnc3c(n2)[nH]c2ccccc23)c1OC | inconclusive: 0.0291 µM [rising, full curve, poor fit] | –
22 | CCOc1ccc(/C=N/OCC(=O)NC(c2ccccc2)c2ccccc2)cc1 | inconclusive: 29.1 µM [cytotoxic, single point] | –
23 | CCOc1cc(C(=O)OCC(=O)Nc2ccc(F)cc2Cl)ccc1OCC(=O)N1CCOCC1 | inactive | –
24 | CCC1CCCCN1C(=O)CSc1nc2c([nH]c3ccccc32)c(=O)n1-c1cccc(OC)c1 (configuration not stated) | inconclusive: 32.6 µM [cytotoxic, single point] | –

Row | Compound | Potency | activity change, negative = cytotoxic
25 | Cc1cccc(N2CCN(C(=O)c3cc4c(=O)n(C)c5ccccc5c4s3)CC2)c1C | inactive | –
26 | COc1ccc(NC(=O)c2ccc(-c3ccccc3C(F)(F)F)o2)cc1 | inactive | –
27 | COC(=O)COc1ccc(S(=O)(=O)NC2CCCCCC2)cc1 | inconclusive: 0.411 µM [cytotoxic, full curve] | –
28 | CCOC(=O)[C@]12CCCC=C1N(Cc1cccc3ccccc13)C(=O)[C@H](CC(=O)N1CCOCC1)C2 | inactive | –
29 | Cc1ccc(NC(=O)[C@@H]2O[C@H](CO)[C@H](O)[C@H](O)[C@H]2O)cc1C(F)(F)F | inactive | –
30 | CCCN(CCC)c1ccc(/C=C/c2ccnc3ccccc23)cc1 | inconclusive: 29.1 µM [cytotoxic, single point] | –
31 | COc1ccc(CNCC(O)COc2cccc3c2OC(C)(C)C3)cc1 (configuration not stated) | inconclusive: 32.6 µM [cytotoxic, single point] | –
32 | O=C(COc1ccccc1Cl)Nc1ccc(Cl)c(-c2nc3ccccc3o2)c1 | inactive | –
33 | CCOc1ccc(S(=O)(=O)Nc2ccc(C(=O)N3CCCC3)cc2)cc1C(N)=O | inactive | –
34 | Cc1ccc(-c2nc(CS(=O)(=O)CC(=O)N3CC(C)CC(C)C3)c(C)o2)cc1 (configuration not stated) | inconclusive: 29.1 µM [cytotoxic, single point] | –
35 | CCCNC(=O)C1(C)CCCN(C(=O)Cc2ccc(OC)c(OC)c2)C1 (configuration not stated) | inactive | –
36 | CN(C)CCCNC(=O)N1c2ccccc2C=Cc2ccccc21 | inactive | –
37 | NC(=S)n1[nH]c(-c2ccc([N+](=O)[O-])cc2)c(N=Nc2ccc(Cl)cc2)c1=O | active: 18.4 µM | –
38 | O=C(Nc1cc(S(=O)(=O)N2CCOCC2)ccc1N1CCOCC1)c1cc2c(s1)CCC2 | inactive | –
39 | CCOc1ccc(-c2cc(NC(=O)c3ccc(C)cc3)c(C(=O)OC)s2)cc1 | inactive | –
40 | CC(C)(C)C(=O)c1cnc(Nc2ccccc2)s1 | inconclusive: 29.1 µM [cytotoxic, single point] | –
41 | O=C(Cn1cnc2c(cnn2-c2ccccc2)c1=O)N1CCOCC1 | inconclusive: 29.1 µM [cytotoxic, single point] | –
42 | COc1cccc(N(C(=O)c2ccco2)c2nc(-c3sc(NC(=O)c4ccco4)nc3C)cs2)c1 | active: 5.8 µM | –
43 | CCOc1ccc(CCNC(=O)c2ccc3nc(N4CCOCC4)sc3c2)cc1OCC | inactive | –
44 | CCCNC(=O)C1(C)CCN(C(=O)c2c(F)ccc(C)c2F)C1 (configuration not stated) | inactive | –
45 | COc1ccc(Cc2nnc(SCC(=O)Nc3nc(C)cs3)o2)cc1 | inactive | –
46 | Cc1nc(NC(=O)CSc2nnc(C3CC3)n2N)c(Cl)cc1Cl | inconclusive: 1.84 µM [cytotoxic, partial curve, poor fit] | –
47 | O=C(Nc1nc(-c2ccccc2)c(-c2ccccc2)s1)c1ccc(S(=O)(=O)N2CCCC2)cc1 | inconclusive: 1.64 µM [cytotoxic, full curve] | –

Taken from above:
CCCNC(=O)C1(C)CCN(C(=O)c2c(F)ccc(C)c2F)C1 (configuration not stated) | Potency: inactive
S=c1[nH]nc(-c2ccc(Cl)cc2)n1-c1ccc(Cl)cc1 | Potency: inactive
